In PubChem BioAssay AID292 (DTP/NCI, 2004):
The list does not hold the whole screen: it is rich in T/C values a quarter to a half above the control, in often repeated tests (any T/C) and in doses without a T/C. Further doses and runs are listed elsewhere. T/C is the treated group as % of the vehicle group. Some doses have a count of surviving animals in place of a T/C: the source holds a T/C of zero for them, seemingly a mark for toxic or unscored doses. Counts of survivors are from the toxicity check (mostly the fifth day) where no day follows; animals may have died later. Schedule codes are those of the source, read here as Q, the interval in days (D) or hours (H), X, the number of doses. Some entries were tested several times; their values stand side by side, smallest first. Additions like (4×) stand for listed records that agree. For survival time, the PubChem record calls one and a half times the control and up active, and a quarter to a half above the control has no call in these data; cut-offs in other NCI protocols can differ. Some T/C values carry the count of animals alive at the toxicity check (mostly the fifth day); without a count, all were alive then.

Test system: B6C3F1 mice, ip Sarcoma M5076, median survival T/C
Test: NCI In Vivo Anticancer Drug Screen. Data for tumor model Sarcoma M5076 (intraperitoneal) in B6C3F1 mice
Details: T/C endpoint: median survival time, higher T/C = longer survival
Outline: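 Transplantable tumour in mice; compound-treated vs vehicle-treated groups. Read-out: survival. Value = treated/control ratio.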

[1] = dose: 800.0 mg/kg/injection, schedule: Q04DX004 (ip), vehicle: saline
[2] = dose: 800.0 mg/kg/injection, schedule: Q04DX005 (ip), vehicle: saline
[3] = dose: 100.0 mg/kg/injection, schedule: Q04DX004 (ip), vehicle: saline

With c1cc2n(n1)CCN2 the T/C (dose: 100.0 mg/kg/injection, schedule: Q04DX004 (ip), vehicle: saline, evaluated on day 60) was 103 and 111 % of control [8 of 10 alive on day 14], the T/C (dose: 100.0 mg/kg/injection, schedule: Q04DX004 (ip), vehicle: saline, evaluated on day 75) was 101 (2×), 104 [9 of 10 alive on day 14], 105 (2×), 109, 110, 111 % of control and the T/C (dose: 100.0 mg/kg/injection, schedule: Q04DX005 (ip), vehicle: saline, evaluated on day 75) was 87, 89 [8 of 10 alive], 107, 108, 114 % of control. For the same molecule, the T/C (dose: 100.0 mg/kg/injection, schedule: Q04DX005 (ip), vehicle: saline, evaluated on day 100) was 95 % of control, the T/C (dose: 200.0 mg/kg/injection, schedule: Q04DX004 (ip), vehicle: saline, evaluated on day 60) was 115 and 128 % of control and the T/C (dose: 200.0 mg/kg/injection, schedule: Q04DX004 (ip), vehicle: saline, evaluated on day 75) was 87, 93 [7 of 10 alive on day 14], 95 [9 of 10 alive on day 14], 97, 106, 107 [9 of 10 alive on day 9], 110, 115 % of control. For the same molecule, the T/C (dose: 200.0 mg/kg/injection, schedule: Q04DX005 (ip), vehicle: saline, evaluated on day 75) was 94, 106, 113 % of control (3×), the T/C (dose: 200.0 mg/kg/injection, schedule: Q04DX005 (ip), vehicle: saline, evaluated on day 100) was 95 % of control and the T/C (dose: 400.0 mg/kg/injection, schedule: Q04DX004 (ip), vehicle: saline, evaluated on day 60) was 123 and 141 % of control. The T/C (dose: 400.0 mg/kg/injection, schedule: Q04DX004 (ip), vehicle: saline, evaluated on day 75) was 91, 95, 103, 114 (2×), 114 [7 of 10 alive on day 14], 118, 120 % of control [9 of 10 alive on day 9], the T/C (dose: 400.0 mg/kg/injection, schedule: Q04DX005 (ip), vehicle: saline, evaluated on day 75) was 100, 101, 119, 126, 131 % of control and the T/C (dose: 400.0 mg/kg/injection, schedule: Q04DX005 (ip), vehicle: saline, evaluated on day 100) was 102 % of control. The T/C (dose: 800.0 mg/kg/injection, schedule: Q04DX004 (ip), vehicle: saline, evaluated on day 60) was 137 % of control [8 of 10 alive on day 14], the T/C (dose: 800.0 mg/kg/injection, schedule: Q04DX004 (ip), vehicle: saline, evaluated on day 75) was 97 [9 of 10 alive on day 9], 107 [9 of 10 alive on day 9], 126, 144 % of control [9 of 10 alive on day 14] and the survivor count [1] was 1 of 10 on day 9, 2 of 10, 3 of 10 on day 14 (2×), 4 of 10 on day 9. For the same molecule, the T/C [2] was 112 and 114 % of control [9 of 10 alive on day 9] and the survivor count [2] was 1 of 10 on day 9, 2 of 10 on day 9, 3 of 10, 5 of 8 on day 17.

For CN1CCC2CC1c1ccn(C)c1C2=O (stereo not given), the survivor count (dose: 30.0 mg/kg/injection, schedule: Q04DX004 (ip), vehicle: saline) was 5 of 10 on day 14 and the survivor count (dose: 60.0 mg/kg/injection, schedule: Q04DX004 (ip), vehicle: saline) was 0 of 10 on day 14.

CCN(Cc1ccc(Cl)c(Cl)c1)c1ccc2nc(N)nc(N)c2c1C was tested, and the T/C (dose: 12.5 mg/kg/injection, schedule: Q04DX004 (ip), vehicle: saline) was 126 % of control, the T/C (dose: 50.0 mg/kg/injection, schedule: Q04DX004 (ip), vehicle: saline) was 128 and 131 % of control [7 of 10 alive on day 14] and the T/C [3] was 126 % of control [9 of 10 alive on day 14]. The survivor count [3] was 2 of 10 on day 14 and 6 of 10 on day 14 and the survivor count (dose: 200.0 mg/kg/injection, schedule: Q04DX004 (ip), vehicle: saline) was 0 of 10 on day 14 and 3 of 10 on day 14.

O=c1[nH]c(=O)n(C2CC(O)C(CO)O2)cc1I (stereo not given) was tested, and the T/C (dose: 400.0 mg/kg/injection, schedule: Q04DX004 (ip), vehicle: saline with Tween-80) was 146 % of control, the T/C (dose: 800.0 mg/kg/injection, schedule: Q04DX004 (ip), vehicle: saline with Tween-80) was 137 % of control and the T/C (dose: 1600.0 mg/kg/injection, schedule: Q04DX004 (ip), vehicle: saline with Tween-80) was 137 % of control.

In the case of N#CC1C(=O)NC(=S)NC1c1ccc2c(c1)CCC2 (stereo not given), the survivor count (dose: 400.0 mg/kg/injection, schedule: Q04DX004 (ip), vehicle: saline) is reported as 0 of 10 on day 14 and the survivor count [1] is reported as 0 of 10 on day 14.

For COc1cccc(-n2cc[n+](C)c2/C=N/O)c1, the survivor count (dose: 200.0 mg/kg/injection, schedule: Q04DX004 (ip), vehicle: saline with Tween-80) was 0 of 10 on day 14.
